Assay results reported in PubChem BioAssay AID504444 (National Center for Advancing Translational Sciences (NCATS), 2011).
Hit rate of the full screen: of about 360,000 compounds, about 7,500 (2.1%) were called active. The shares of active, inactive and inconclusive entries below differ from those in the screen. The call rests on the fitted dose curve; in most records, active means well fitted inhibition curve with a large enough effect; inconclusive means small, poorly fitted or top-dose-only effect, or effect the other way; inactive means flat fitted curve, though single readings scatter. Potencies of inconclusive entries are doubtful fits and often do not repeat.

Assay: Nrf2 qHTS screen for inhibitors; further: nearly all actives have a fitted effect of over 60% in size
Conditions: A549 ARE-Fluc reporter, luciferase luminescence, 18-24 h; series mostly up to 46 µM
Outline: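 Nrf2 activity is the BugLite luminescence, read 15 min after reagent at room temperature, following CellTiter-Fluor cytotoxicity readout (30 min, 37C). Compound titrations were applied for 18-24 h to 5000 A549 ARE_Fluc cells/well in 5% FBS OPTI-MEM.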
Potency means the concentration at half of the fitted maximal effect.

Q: For `Fc1c(F)c(-n2nnc3ccccc32)c(F)c(F)c1Cl`, which Potency is on record?
A: inactive

Q: With `CCS(=O)(=O)c1c(Nc2ccc(F)c(Cl)c2)sc(C(=O)c2ccccc2)c1N` as the molecule, how does the Potency read?
A: active: 20.6 µM

Q: For `COc1ccc(N(CC(=O)Nc2cccc(N(C)S(C)(=O)=O)c2)S(=O)(=O)c2ccc(C)cc2)cc1`, which Potency is on record?
A: inconclusive: 6.51 µM [falling, partial curve]

Q: Which Potency does the source give for `O=[N+]([O-])c1ccc(CN2CCN(c3ccc([N+](=O)[O-])cc3)CC2)cc1` here?
A: active: 7.31 µM

Q: With `COC(=O)c1cc(S(=O)(=O)N2CCCC(C)C2)cn1C` (stereo not given) as the molecule, how does the Potency read?
A: inconclusive: 25.9 µM [falling, single point]

Q: With `COc1ccc(C(=O)CSc2nc3cccnc3n2C)cc1` as the molecule, how does the Potency read?
A: inconclusive: 9.2 µM [falling, partial curve, poor fit]

Q: For `O=C(O)CCCc1ccc2c(c1)CCc1ccccc1-2`, which Potency is on record?
A: inconclusive: 0.651 µM [falling, full curve]

Q: With `CSc1nc2ccc(S(=O)(=O)NC3CCCCC3)cc2s1` as the molecule, how does the Potency read?
A: inconclusive: 20.6 µM [falling, single point]

Q: Which Potency does the source give for `O=C(c1cnn(-c2nc3ccccc3s2)c1)c1ccccc1O` here?
A: inconclusive: 3.26 µM [activator, partial curve]

Q: With `CC(C)C1N(C(=O)N2CCOCC2)CCN1S(=O)(=O)c1ccccc1` (stereo not given) as the molecule, how does the Potency read?
A: inconclusive: 6.51 µM [falling, partial curve, poor fit]

Q: With `CC1CCCN(S(=O)(=O)c2ccc(S(=O)(=O)NC(C)c3cccs3)cc2)C1` (stereo not given) as the molecule, how does the Potency read?
A: active: 23.1 µM

Q: For `O=c1c2oc3ccccc3c2n(Cc2ccccc2F)c(=O)n1Cc1ccco1`, which Potency is on record?
A: inactive

Q: For `CCN(CC(=O)Nc1ccc(OC)cc1)C(=O)c1cc(S(=O)(=O)N(C)C)ccc1N1CCCC1`, which Potency is on record?
A: inconclusive: 18.4 µM [falling, partial curve, poor fit]

Q: For `Cc1c(CNCCCc2ccccc2)c(C(=O)O)c(C)n1Cc1ccc(Cl)cc1`, which Potency is on record?
A: inactive

Q: For `CCOC(=O)c1ccc(Nc2cc3ccccc3c(=O)[nH]2)cc1`, which Potency is on record?
A: inconclusive: 2.59 µM [falling, partial curve, poor fit]

Q: With `CN(C)c1oc(-c2ccco2)nc1S(=O)(=O)c1ccc(Br)cc1` as the molecule, how does the Potency read?
A: inactive

Q: For `COc1ccc(C(=O)Nc2cccc(C(=O)N/N=C/c3ccc(OC)cc3OC)c2)cc1`, which Potency is on record?
A: inconclusive: 23.1 µM [falling, single point]

Q: For `O=C(CSc1nc2[nH]ncc2c(=O)[nH]1)Nc1cccc(Cl)c1`, which Potency is on record?
A: inactive

Q: For `CCCCCSc1nnc2c(n1)OC(c1ccc(C)s1)N(C(C)=O)c1ccccc1-2` (stereo not given), which Potency is on record?
A: inconclusive: 29.1 µM [falling, single point]

Q: Which Potency does the source give for `COC(=O)c1ccc(CSc2nc3ccccc3o2)cc1` here?
A: inconclusive: 29.1 µM [activator, single point]
